Percent effect of library compounds

Protein sequences, listed by entry. Tags and fused reporters are not part of them.
UniProt P9WNZ1, whole entry: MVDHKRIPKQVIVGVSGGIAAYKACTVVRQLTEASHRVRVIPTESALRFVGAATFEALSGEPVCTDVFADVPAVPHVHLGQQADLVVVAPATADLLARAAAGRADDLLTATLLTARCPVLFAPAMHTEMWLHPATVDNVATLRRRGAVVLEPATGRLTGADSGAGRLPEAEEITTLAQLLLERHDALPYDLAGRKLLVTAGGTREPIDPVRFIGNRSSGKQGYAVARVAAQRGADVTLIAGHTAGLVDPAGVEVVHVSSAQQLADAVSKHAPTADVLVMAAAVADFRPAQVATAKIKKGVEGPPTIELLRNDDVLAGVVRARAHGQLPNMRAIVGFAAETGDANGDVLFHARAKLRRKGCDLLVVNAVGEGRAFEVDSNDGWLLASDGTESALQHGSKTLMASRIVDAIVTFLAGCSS

Data taken from ChEMBL document CHEMBL3988442, “University of Dundee, Small-Polar-MMV Screening Library” (2021).

A: 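Cell assay of Leishmania donovani living inside macrophages; the read-out is not stated. Concentration: 30 µM. Higher reads as stronger inhibition (inferred: compounds with an IC50 in retests scored well above the rest). Size under these conditions: about 69,000 compounds, about 1,000 of them at 50% or above in at least one test.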
B: 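Enzyme assay of CoaBC with a phosphate dye (Biomol Green) read at 650 nm. Target: Coenzyme A biosynthesis protein CoaBC, Mycobacterium tuberculosis (UniProt P9WNZ1). Concentration: 30 µM. Higher reads as stronger inhibition, judged from the few compounds that gave an IC50. Most strong results did not repeat in a second test. Size under these conditions: about 67,000 compounds, about 40 of them at 50% or above in at least one test.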

The filed quantity is “Percent Effect” (%). The record does not define 0% and 100%; most values in the screen are far below 50% and negative numbers occur (in some assays of this library far below -100). This is an unselected part of the compounds tested. Two or more numbers in one place are separate tests of the same structure; such repeats can differ widely. A dash means the value is not listed here; it may have been measured.

SMILES,A,B
Cc1nccc(CNC(=O)Nc2cc(C(F)(F)F)c[nH]c2=O)n1,29.79,3.827
O=C(O)C(F)(F)F.c1cnc(NC2COC3(CCN(Cc4cc[nH]n4)CC3)C2)nc1 (configuration not stated),-32.52,-
Cl.Cl.c1ccc(OC[C@@H]2CCC[C@@]23CNCCO3)nc1,-31.57,-
CN(C)c1ccc(C(=O)NCc2cccnc2-n2cncn2)cc1F,13.12 and 5.595,-3.817
Cc1cnn(CC2CCN(CC(O)CN3CCC(C)CC3)CC2)c1 (configuration not stated),48.46,-19.35
O=C1CCC2(CCN(S(=O)(=O)c3ccccc3)CC2)N1CC1CC1,-6.966,3.308
Cc1noc(C)c1CN1CCn2c(CN3CCN(C)CC3)cnc2C1,-,-13.17
O=C(c1c[nH]c(=O)c(Cl)c1)N1C[C@@H]2CC[C@H](C1)N(Cc1ccccc1)C2,-,-0.2151
c1cnn(CC2CN(c3ncnc4[nH]ccc34)CCO2)c1 (configuration not stated),1.835,0.1272
O=C(NCCOc1ccc(Cl)cc1)N1CCS(=O)(=O)CC1,-5.682,-2.591
CC(=O)c1ccc(C(=O)N2C[C@@H](CN3CCCC3)[C@@H](CO)C2)cc1,12.01,5.656
CC1CN(C(=O)CN(Cc2ccccc2Br)C2CC2)CCO1 (configuration not stated),30.08,-0.7692
O=c1[nH][nH]cc1-c1ccnc(NCCc2cccc(O)c2)n1,20.86 and 28.77,2.771
CCCC(=O)N(CCCN1CCOCC1)c1nc2c(C)c(C)ccc2s1.Cl,15.23 and 30.56,-
O=C(Nc1ccccc1)C1CN(Cc2ccsc2)CC12CCOCC2.O=C(O)C(F)(F)F (configuration not stated),11.5,-
Cn1cccc1C(=O)N1CCc2ncnc(N3CCOCC3)c2CC1,18.96,4.821
N#Cc1ccc(N2CCCC3(CCN(c4cncnc4)C3=O)C2)nc1.O=C(O)C(F)(F)F (configuration not stated),-0.08646,-
Cn1cc(CNCCn2cccn2)c(-c2cccnc2)n1,12.34,-6.608
Cn1c(=O)[nH]c2cc(C(=O)OCCCn3ccccc3=O)ccc21,-8.638,0.7212
COc1ccc(CNCC2CC2)cc1F,18.41,0.207
Cc1occc1C(=O)N1CCC2(CC1)CC(c1cccnc1)C(=O)N2C (configuration not stated),21.79,-0.3807
COc1ccccc1OC1(C(=O)O)CCN(c2ccccn2)CC1,8.192,-0.7317
COc1cc(C#N)ccc1OCC(=O)N(C1CC1)C(C)c1ccco1 (configuration not stated),17.86,2.903
c1cnc(N2Cc3nccn3CC(COc3cccnc3)C2)nc1 (configuration not stated),-,-3.329
Cc1[nH]nc(CCC(=O)N2CCCC(OCc3cccnc3)C2)c1C (configuration not stated),-5.666,-0.8772
[H][C@@]12COC[C@]1([H])[C@@H](OC)CN2C(=O)c1ccnnc1,2.202,-
CC(C)c1nc(CN2CCC(CO)CC2)cs1,-19.76,16.2
O=S(=O)(c1cccs1)N1Cc2nc(COCC3CC3)oc2C1,21.41,-1.114
COCCCn1ccc(NCc2ccc(NC(C)=O)cc2)n1,-3.945,1.901
CC(C)[C@@H]1CN(C(=O)NCCc2ccccc2)C[C@H]1NS(=O)(=O)N(C)C,-0.6336,-
CC(NC(=O)c1ccoc1)C(=O)N(C)Cc1ccc(O)cc1 (configuration not stated),-4.589,-1.29
O=C(O)C(F)(F)F.O=C1COC2(CCN(c3ncccn3)CC2)CN1Cc1ccccn1,37.93,-
CCc1nnc2n1CCN(CCC(=O)Nc1cc(C)on1)C2,-6.279,-9.287
Cc1nc(S(=O)(=O)CCn2cccn2)n(CC2CCCO2)c1C (configuration not stated),19.12,3.481
CC1(C)CNC(=O)c2nc(C3CCN(C(=O)C4CC4)CC3)[nH]c2C1,27.63,2.297
CC(O)CNC(=O)CCc1nc2ncccc2[nH]1 (configuration not stated),-2.944,3.788
c1ccc(OCc2n[nH]c3c2CN(CC2CC2)C3)nc1,-,2.083
Cc1noc(C)c1CN1CC2(CCN(Cc3c[nH]cn3)CC2)CC1=O,1.459,4.315
CN1CC2(CCN(Cc3ncc[nH]3)CC2)CC1=O,9.887,5.042
CC(=O)Nc1ccc(CNCc2cccnc2N(C)C)cc1,15.3,4.253
O=C(c1cocn1)N1CCC2(CC1)CC(OCC1CC1)CO2 (configuration not stated),52.58,7.582
O=C(O)C(F)(F)F.O=C(O)C(F)(F)F.[H][C@@]12CCCO[C@]1([H])[C@H](OCc1ccncc1)CN2Cc1ccoc1,18.97,-

For reference, 5 entries once more:

* CC(C)c1nc(CN2CCC(CO)CC2)cs1 : A: -19.76%; B: 16.2%
* O=S(=O)(c1cccs1)N1Cc2nc(COCC3CC3)oc2C1 : A: 21.41%; B: -1.114%
* Cc1nccc(CNC(=O)Nc2cc(C(F)(F)F)c[nH]c2=O)n1 : A: 29.79%; B: 3.827%
* COc1cc(C#N)ccc1OCC(=O)N(C1CC1)C(C)c1ccco1 (configuration not stated) : A: 17.86%; B: 2.903%
* Cl.Cl.c1ccc(OC[C@@H]2CCC[C@@]23CNCCO3)nc1 : A: -31.57%